Results are given in words; binding and its absence hold for the method and conditions named. Some binding calls cover weakened binding; strength is not graded here. Where a sequence is shown, tags or fusion partners need not be part of it.
Target: T1, human Bonzo with N-terminal hemagglutinin (HA) epitope, expressed on transfected L1.2 cells (Bonzo/L1.2 cells) (human) (UniProt O00574)
T1 sequence: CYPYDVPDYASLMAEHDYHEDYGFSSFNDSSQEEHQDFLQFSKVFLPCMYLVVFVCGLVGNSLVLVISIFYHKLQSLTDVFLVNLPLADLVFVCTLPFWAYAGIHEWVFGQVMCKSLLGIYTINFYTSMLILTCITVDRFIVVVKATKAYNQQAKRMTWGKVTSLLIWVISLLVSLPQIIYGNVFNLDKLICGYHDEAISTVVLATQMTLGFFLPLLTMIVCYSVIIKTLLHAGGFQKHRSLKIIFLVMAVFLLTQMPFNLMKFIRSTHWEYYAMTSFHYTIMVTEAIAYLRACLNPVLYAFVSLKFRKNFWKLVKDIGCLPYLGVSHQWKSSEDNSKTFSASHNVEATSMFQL
Experiment: radioligand binding on Bonzo/L1.2 cells

The chains behind the UniProt entries cited, without tags or fusion partners. Where a name states a change or a piece, a line headed by the entry shows the natural chain unless it says otherwise.
UniProt O00574: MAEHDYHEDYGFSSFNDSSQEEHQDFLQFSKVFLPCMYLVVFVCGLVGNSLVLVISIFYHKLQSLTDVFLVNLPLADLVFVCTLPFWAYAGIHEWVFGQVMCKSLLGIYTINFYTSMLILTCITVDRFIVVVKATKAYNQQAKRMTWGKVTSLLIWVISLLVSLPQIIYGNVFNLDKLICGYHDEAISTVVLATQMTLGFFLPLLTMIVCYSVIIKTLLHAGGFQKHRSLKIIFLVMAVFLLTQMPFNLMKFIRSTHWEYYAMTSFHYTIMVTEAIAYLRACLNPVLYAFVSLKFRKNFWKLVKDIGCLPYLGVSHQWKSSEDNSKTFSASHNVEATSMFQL

B1: purified recombinant His-tagged SExCkine (entire predicted extracellular domain, amino acid residues 1 to 202 of SEQ ID NO:4) (ligand)
chain: NEGSVTGSCYCGKRISSDSPPSVQFMNRLRKHLRAYHRCLYYTRFQLLSWSVCGGNKDPWVQELMSCLDLKECGHAYSGIVAHQKHLLPTSPPISQASEGASSDIHTPAQMLLSTLQSTQRPTLPVGSLSSDKELTRPNETTIHTAGHSLAVGPEAGENQKQPEKNAGPTART
modifications: heavily glycosylated; iodinated with 125I where used as tracer
notes: Expressed in 293T cells, purified on wheat germ agglutinin and NiNTA; also called purified recombinant SExCkine (CXCL16); recombinant His-tagged SExCkine protein; not shown: C-terminal His tag from the pEF-His vector
For B1, the binding was “binds”.

From US20030165995A1 (Takeda / Millennium, published 2003)
